The test system of this test is MDA-MB-468. In words: phospho-S6 immunofluorescence (DAPI-normalised), per-plate z-score; higher = higher phospho-S6 signal (less pathway suppression). As to conditions: 24 h. The protocol:
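GPCR-targeted compound library (MedChemExpress HY-L006) tested on MDA-MB-468 PTEN-null TNBC cells in 384-well plates at 0.1, 1 or 10 uM, combined with vehicle, GDC0941 450 nM or lapatinib 1 uM, for 24 h. Phospho-S6 (S240/244) immunofluorescence normalised to DAPI and expressed as a per-plate z-score; values are the mean of biological triplicates.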

[1] abbreviates: compound 0.1 µM, co-treatment: GDC0941 450 nM.
The mark [2] stands for this setting: compound 0.1 µM, co-treatment: lapatinib 1 uM.
Where [3] appears, read: compound 0.1 µM, co-treatment: vehicle.
[4] abbreviates: compound 1 µM, co-treatment: GDC0941 450 nM.
Setting [5] is: compound 1 µM, co-treatment: lapatinib 1 uM.
Setting [6] is: compound 1 µM, co-treatment: vehicle.

Molecules are shown by their SMILES. Counter-ions that a name gives are not always drawn. The list shows a part of the results. Most values lie within the scatter of the assay; repeated measurements hardly agree.

For `O=c1n(CCCN2CCN(c3cccc(Cl)c3)CC2)nc2ccccn12` [Trazodone (hydrochloride)], the “phospho-S6 immunofluorescence (z-score)” value is -0.6 under setting [1]; -1.05 under setting [2]; -0.97 under setting [3]; 0.62 under setting [4]; -0.2 under setting [5]; -0.57 under setting [6].
Regarding `CCN(Cc1ccncc1)C(=O)C(CO)c1ccccc1` (stereo not given) [Tropicamide], the “phospho-S6 immunofluorescence (z-score)” value by setting is: under setting [1], 0.09; under setting [2], 0.79; under setting [3], -0.48; under setting [4], -0.53; under setting [5], 1.03; under setting [6], -0.97.
For `NC(=O)c1ccc[n+]([O-])c1` [Nicotinamide N-oxide], the “phospho-S6 immunofluorescence (z-score)” value reads like this: under setting [1], -0.45; under setting [2], 0.66; under setting [3], 0.09; under setting [4], -0.35; under setting [5], 0.06; under setting [6], 0.06.
Take `CN1CC2c3ccccc3Oc3ccc(Cl)cc3C2C1` (stereo not given) [Asenapine (maleate)]: the “phospho-S6 immunofluorescence (z-score)” value under setting [1] was -0.48; the “phospho-S6 immunofluorescence (z-score)” value under setting [2] is -0.48; the “phospho-S6 immunofluorescence (z-score)” value under setting [3] is 0.09; the “phospho-S6 immunofluorescence (z-score)” value under setting [4] stood at 0.27; the “phospho-S6 immunofluorescence (z-score)” value under setting [5] came to 0.72; the “phospho-S6 immunofluorescence (z-score)” value under setting [6] is -0.38.
Turning to `OCCN1CCN(CCCN2c3ccccc3Sc3ccc(C(F)(F)F)cc32)CC1` [Fluphenazine (dihydrochloride)], the “phospho-S6 immunofluorescence (z-score)” value runs as follows: under setting [1], -1.46; under setting [2], -0.91; under setting [3], -2.3; under setting [4], -0.59; under setting [5], -0.57; under setting [6], -1.77.
Consider `CCN(CC)CC#CCOC(=O)C(O)(c1ccccc1)C1CCCCC1` (stereo not given) [Oxybutynin (chloride)], for which the “phospho-S6 immunofluorescence (z-score)” value is 0.01 under setting [1]; 0.07 under setting [2]; -0.58 under setting [3]; 1.1 under setting [4]; -0.33 under setting [5]; 0.07 under setting [6].
For the molecule `CN1CCN(C2=Nc3cc(Cl)ccc3Nc3ccccc32)CC1` [Clozapine (N-oxide)], the “phospho-S6 immunofluorescence (z-score)” value is 0.57 under setting [1]; -0.45 under setting [2]; -0.95 under setting [3]; 1.27 under setting [4]; 0.19 under setting [5]; -0.95 under setting [6].
With `Cc1noc(NS(=O)(=O)c2ccc(N)cc2)c1C` [Sulfisoxazole], the “phospho-S6 immunofluorescence (z-score)” value by setting is: under setting [1], 0.96; under setting [2], 0.46; under setting [3], 0.58; under setting [4], 0.96; under setting [5], 0.24; under setting [6], 0.41.
Take `COc1cc2c(cc1OC)CC(=O)N(CCCN(C)C[C@H]1Cc3cc(OC)c(OC)cc31)CC2` [Ivabradine (hydrochloride)]: the “phospho-S6 immunofluorescence (z-score)” value by setting is: under setting [1], 0.33; under setting [2], -0.32; under setting [3], 0.21; under setting [4], 0.55; under setting [5], 0.14; under setting [6], 1.34.
Take `COC(=O)CCc1ccc(OCC(O)CNC(C)C)cc1` (stereo not given) [Esmolol (hydrochloride)]: the “phospho-S6 immunofluorescence (z-score)” value is, setting by setting: under setting [1], 0.37; under setting [2], -0.37; under setting [3], -0.06; under setting [4], 0.82; under setting [5], 0.08; under setting [6], 0.64.
As to `CN(C)C(=O)N[C@H]1CC[C@H](CCN2CCN(c3cccc(Cl)c3Cl)CC2)CC1` [Cariprazine (hydrochloride)], the “phospho-S6 immunofluorescence (z-score)” value under setting [1] stood at 0.59; the “phospho-S6 immunofluorescence (z-score)” value under setting [2] came out at 0.54; the “phospho-S6 immunofluorescence (z-score)” value under setting [3] worked out at 0.77; the “phospho-S6 immunofluorescence (z-score)” value under setting [4] turned out to be 0.71; the “phospho-S6 immunofluorescence (z-score)” value under setting [5] is 0.02; the “phospho-S6 immunofluorescence (z-score)” value under setting [6] amounted to 0.25.
`C[C@H](NC(=O)c1c(C(F)F)nn(C)c1Oc1cccc(C(F)(F)F)c1)c1ccc(C(=O)O)cc1`: the “phospho-S6 immunofluorescence (z-score)” value reads like this: under setting [1], 0.44; under setting [2], -0.09; under setting [3], -0.12; under setting [4], -0.08; under setting [5], 0.37; under setting [6], -0.34.
Consider `CCc1ccc(OCc2ccccc2C(=O)Nc2ccc3nc(C)cc(N)c3c2)cc1`, for which the “phospho-S6 immunofluorescence (z-score)” value is -0.75 under setting [1]; -0.05 under setting [2]; -0.57 under setting [3]; 1.06 under setting [4]; 0.31 under setting [5]; 1.08 under setting [6].
In the case of `O=C(Nc1cccc2c(=O)cc(-c3nnn[nH]3)oc12)c1ccc(OCCCCc2ccccc2)cc1` [Pranlukast], the “phospho-S6 immunofluorescence (z-score)” value reads like this: under setting [1], -0.21; under setting [2], 0; under setting [3], -0.47; under setting [4], 0.61; under setting [5], 1.1; under setting [6], -0.48.
Regarding `Cc1ccc(NC(=S)NNc2c([N+](=O)[O-])cc(C(F)(F)F)cc2[N+](=O)[O-])cc1Cl`, the “phospho-S6 immunofluorescence (z-score)” value was -0.75 under setting [1]; -0.45 under setting [2]; -1.38 under setting [3]; -0.02 under setting [4]; -0.74 under setting [5]; -0.95 under setting [6].
In the case of `OC(CCCN1CCCCC1)(c1ccccc1)c1ccccc1` [Diphenidol (hydrochloride)], the “phospho-S6 immunofluorescence (z-score)” value is 0.67 under setting [1]; 0.36 under setting [2]; 0.02 under setting [3]; 1.57 under setting [4]; -0.21 under setting [5]; 0 under setting [6].
With `CCOC(=O)O[C@]1(C(=O)OCCl)CC[C@H]2[C@@H]3CCC4=CC(=O)C=C[C@]4(C)[C@H]3[C@@H](O)C[C@@]21C` [Loteprednol Etabonate], the “phospho-S6 immunofluorescence (z-score)” value is -1.28 under setting [1]; 0.32 under setting [2]; -0.83 under setting [3]; -0.06 under setting [4]; 0.43 under setting [5]; -0.46 under setting [6].
Consider `CCNC(=O)[C@@H]1CCCN1C(=O)[C@H](CCCN=C(N)N)NC(=O)[C@H](CC(C)C)NC(=O)[C@@H](C)NC(=O)[C@H](Cc1ccc(O)cc1)NC(=O)[C@H](CO)NC(=O)[C@H](Cc1c[nH]c2ccccc12)NC(=O)[C@H](Cc1cnc[nH]1)NC(=O)[C@@H]1CCC(=O)N1` [Alarelin (Acetate)], for which the “phospho-S6 immunofluorescence (z-score)” value is 0.44 under setting [1]; 1.28 under setting [2]; 1.68 under setting [3]; 0.63 under setting [4]; -0.42 under setting [5]; 1.43 under setting [6].
Take `O=C(O)Cn1c2c(c3cc(F)ccc31)CN(C(=O)c1cccc3ccccc13)CC2` [Setipiprant]: the “phospho-S6 immunofluorescence (z-score)” value is, setting by setting: under setting [1], -0.98; under setting [2], -0.83; under setting [3], -0.65; under setting [4], -0.4; under setting [5], 0.34; under setting [6], -0.47.
Consider `COc1cc(N)cn[n+]1-c1ccccc1` [Amezinium (methylsulfate)], for which the “phospho-S6 immunofluorescence (z-score)” value is 0.57 under setting [1]; 1.15 under setting [2]; -0.07 under setting [3]; 0.07 under setting [4]; 0.99 under setting [5]; -0.23 under setting [6].
As for `COCc1nnc(N2CC(Oc3ccc(F)cc3Cl)C2)n1-c1ccc(OC)nc1`, the “phospho-S6 immunofluorescence (z-score)” value is -0.18 under setting [1]; 0.35 under setting [2]; -0.31 under setting [3]; -0.37 under setting [4]; 1.67 under setting [5]; -0.5 under setting [6].
As to `COCCc1ccc(OCC(O)CNC(C)C)cc1` (stereo not given) [Metoprolol (Succinate)], the “phospho-S6 immunofluorescence (z-score)” value under setting [1] stood at 2.61; the “phospho-S6 immunofluorescence (z-score)” value under setting [2] was -1.38; the “phospho-S6 immunofluorescence (z-score)” value under setting [3] amounted to 0.61; the “phospho-S6 immunofluorescence (z-score)” value under setting [4] was 0.31; the “phospho-S6 immunofluorescence (z-score)” value under setting [5] amounted to 0.24; the “phospho-S6 immunofluorescence (z-score)” value under setting [6] came out at 1.08.
As for `CC(=O)OCC(=O)[C@@]1(O)CC[C@H]2[C@@H]3CCC4=CC(=O)CC[C@]4(C)[C@H]3C(=O)C[C@@]21C` [Cortisone (acetate)], the “phospho-S6 immunofluorescence (z-score)” value reads like this: under setting [1], 0.31; under setting [2], 0.83; under setting [3], 0.56; under setting [4], 1.42; under setting [5], 0.92; under setting [6], 0.8.
On to `CC(C)[C@H](N=C(NS(=O)(=O)c1ccc(Cl)cc1)N1C[C@H](c2ccccc2)C(c2ccc(Cl)cc2)=N1)C(N)=O`, for which the “phospho-S6 immunofluorescence (z-score)” value reads like this: under setting [1], 1.3; under setting [2], 1.53; under setting [3], 0.09; under setting [4], 0.29; under setting [5], -0.5; under setting [6], 0.73.
`COc1cc(/C=C/C(=O)NCCn2c(C(F)(F)F)cc3ccccc32)cc(OC)c1OC`: the “phospho-S6 immunofluorescence (z-score)” value was -0.24 under setting [1]; -0.06 under setting [2]; 0.1 under setting [3]; -1.27 under setting [4]; -0.49 under setting [5]; 0.43 under setting [6].

The record behind these values is the supplement of paper PMC7411640.
